# Reference: article PMC3146519, “Highly Efficient Production of Soluble Proteins from Insoluble Inclusion Bodies by a Two-Step-Denaturing and Refolding Method”
# The exact form of at least one protein or probe is not confirmed. No signal at the amounts used counts as a negative.
# Test system: NRSF/REST DBD (unfolded)
# Assay: EMSA
# Settings: unfolded (denatured) protein control, 0.1 mM ZnCl2; 10 mM Tris pH 7.0, 0.1 mM ZnCl2, 20 ul, 30 min at room temperature; 5% native PAGE, EtBr stain; recombinant protein; label: none (EtBr stain)
sequence,measurement,value
TTCAGCACCACGGACAGCGCC (double strand) [NRSE/RE1 dsDNA],binding result,no binding
